Reference: patent publication US20080311122A1, “Antagonists of Hmgb1 and/or Rage and Methods of Use Thereof” (Medimmune, LLC, priority 2005, published 2008)
Some entries share one result that the patent states for a list of compounds.

System: mouse CLP model of sepsis
Assay: Cecal ligation and puncture (CLP) model of sepsis
Type: in vivo
Details: versus isotype control R3-47
Description: Anti-HMGB1 in Sepsis: To establish live intra-abdominal infection and sepsis, Balb/C mice (9-11 per group) were subjected to the CLP procedure as described previously (Fink and Heard, 1990, J Surg Res 49:186-196; Wichmann et al., 1996, J Surg Res 65, 109-114). After anesthesia with an intramuscular injection of ketamine (75 mg/kg, Fort Dodge Laboratories, Fort Dodge, Iowa) and xylazine (20 mg/kg, Bochringer Ingelheim), a 15-mm midline incision was made to expose the cecum. After ligation 5.0 mm from the tip, the cecal stump was punctured once with a 22-gauge needle, and small amount of stool (1-mm length) was extruded. The cecum was placed back into its normal intra-abdominal position, and the wound was closed with two layers of running suture. All animals received saline-solution (0.9% s.c., 20 ml/kg of body weight) resuscitation, and a single dose of antibiotic (0.5 mg of imipenem per mouse in 200 μl of sterile saline injected s.c.) (Primaxin, Merck) 30 min after surgery.
Anti-HMG1 antibodies or isotype control antibodies (50 μg/mouse in a 200 μl volume), were administered intraperitoneally at 24 and 48 hours, post surgery. In certain follow up experiments anti-HMG1 antibodies or isotype control antibodies (8 mg/kg) were administered intraperitoneally at 24 hours, post surgery (FIG. 11C-D). […] The survival of the mice was monitored twice daily for a total of 14 days. […]

| Molecule | improvement of survival |
| --- | --- |
| S16: human anti-HMG1 antibody, ATCC PTA-6259; VL/VH aa SEQ ID NO: 13/15 (antibody, listed as Homo sapiens, V domains shown) VH: EVQLLESGGGLVQPGGSLRLSCAASGFTFSWYSMLWVRQAPGKGLEWVSYISPSGGFTNYADSVKGRFTISRDNSKNTLYLQMNSLRAEDTAVYYCARWDYNSGWYYDHWGQGTLVTVSS VL: AQDIQMTQSPDTLSLSPGERATLSCRASQSVNSRNLAWYQQKPGQAPRLLIYGASTRATGIPDRFSGSVSGTEFTLTISSLQPDDFATYYCQQYNSYFTFGQGTKLEIK | up to 60% |
| E11: human anti-HMG1 antibody, recognizes HMG1 A-Box; VL/VH aa SEQ ID NO: 24/26 (antibody, listed as Homo sapiens, V domains shown) VH: EVQLLESGGGLVQPGGSLRLSCAASGFTFSRYQMNWVRQAPGKGLEWVSSISPSGGHTHYADSVKGRFTISRDNSKNTLYLQMNSLRAEDTAVYYCAKDGRQGKISTVDHWGQGTLVTVSS VL: AQDIQMTQSPGTLSLSPGERATLSCRASQSVRSNFLAWYQQKPGQAPRLLIYGASRRASGIPDRFSGSGFGADFTLSISRLEPEDFAVYYCQQYGSSPNTFGQGSRVEIK | up to 60% |
